According to PMC10497945 (Frontiers in Pharmacology, 2023):
Strings that start with PEPTIDE1 are HELM notation: dots part the residues, brackets hold end groups and non-standard residues.

Experiment: general procedure: Fmoc solid-phase peptide synthesis; 2-chlorotrityl chloride resin (Cl-Trt-resin) preloaded with amino acid; HOBt/DCC
Settings: TFA salt
[1] = whole synthesis, scale of the general procedure 1.1 mmol

Substance	crude mass (whole synthesis) [mg]	crude yield [1] [%]	step yield (late stage modification step) [%]	crude HPLC purity (whole synthesis, analytical RP-HPLC and elemental analysis, scale of the general procedure 1.1 mmol) [%]	cyclisation yield (cyclisation step) [%]
Arg(Pbf)-Gly-Asp(OtBu)-phe-Lys(Cbz)OH	650	55.5			
PEPTIDE1{R.G.D.[dF].K}$PEPTIDE1,PEPTIDE1,1:R1-5:R2$$$V2.0			92		
Fmoc Ala-Val-Pro-Ile-Gly-Lys-OH	325	36.4		>95	
c [Arg (pbf)-Gly-Asp(OtBu)-phe-Lys (Cbz)]					88.3
FmocAla-Val-Pro-Ile-Gly-Lys(Boc)-OH	325	32.7			
